In PubChem BioAssay AID1671190 (National Center for Advancing Translational Sciences (NCATS), 2021):
Several values for one entry are separate records, joined by “and”; a condition that tells them apart may be missing. Identical values can stand only once. Out of some 580,000 compounds screened, about 6,100 (1.1%) were called active. The inconclusive results got no clear call from the source; some entries with a clear call stand among them for comparison. The call rests on the fitted dose curve; in most records, active means well fitted inhibition curve with a large enough effect; inconclusive means small, poorly fitted or top-dose-only effect, or another doubt; inactive means no such curve, though single readings can be large or run the other way. A potency beside an inconclusive call is a rough fit, not a confirmed value.

The chains behind the UniProt entries cited, without tags or fusion partners. Where a name states a change or a piece, a line headed by the entry shows the natural chain unless it says otherwise.
UniProt P18054: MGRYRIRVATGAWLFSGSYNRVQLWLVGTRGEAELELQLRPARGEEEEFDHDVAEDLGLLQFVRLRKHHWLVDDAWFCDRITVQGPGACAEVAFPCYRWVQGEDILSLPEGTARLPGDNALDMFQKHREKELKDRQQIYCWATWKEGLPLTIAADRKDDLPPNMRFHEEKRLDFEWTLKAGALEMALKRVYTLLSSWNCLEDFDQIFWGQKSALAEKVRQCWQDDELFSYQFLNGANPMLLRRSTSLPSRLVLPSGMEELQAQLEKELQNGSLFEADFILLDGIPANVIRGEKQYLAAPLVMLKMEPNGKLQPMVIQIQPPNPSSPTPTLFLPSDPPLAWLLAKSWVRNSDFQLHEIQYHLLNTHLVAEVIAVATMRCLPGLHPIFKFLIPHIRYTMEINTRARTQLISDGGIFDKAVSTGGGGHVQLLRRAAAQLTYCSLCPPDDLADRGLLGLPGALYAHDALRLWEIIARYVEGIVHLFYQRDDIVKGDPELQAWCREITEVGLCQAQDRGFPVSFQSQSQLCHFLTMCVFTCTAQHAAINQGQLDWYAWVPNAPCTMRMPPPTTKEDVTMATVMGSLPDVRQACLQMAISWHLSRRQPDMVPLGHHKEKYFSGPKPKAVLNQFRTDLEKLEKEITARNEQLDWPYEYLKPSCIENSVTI

These molecules were tested against Polyunsaturated fatty acid lipoxygenase ALOX12 (Homo sapiens) (UniProt P18054) (assay: Primary qHTS assay for inhibitors of human arachidonate 12S-lipoxygenase (ALOX12): Round 2). Details: purified 12hLO, xylenol orange hydroperoxide absorbance; activity change, negative = inhibition: at 108 µM (top of the series) unless noted.
Outline: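 Purified human 12hLO (150 nM final) in 25 mM Hepes, 0.01% Triton X-100, pH 7.0 was preincubated 15 min at room temperature with compound. Then 40 uM arachidonic acid was added, 30 min. Hydroperoxide was read by Fe-XO absorbance ratio 573/405 nm.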
On the % scale 0 is the no-effect control and ±100 the full control effect; potency means the concentration at half of the fitted maximal effect.

Compound | activity change, negative = inhibition | Potency
CC(=O)Nc1ccc2nc(CN3CCN(CC=C(C)C)C(CCO)C3)ccc2c1 (stereo unspecified) | inactive: -1.71% | 
O=C(CCl)NCCNC(=O)c1cc(OCC(F)(F)F)ccc1OCC(F)(F)F | inactive: -16.6% | 
O=C1CC(c2cccnc2)c2cc3c(cc2N1)OCCO3 (stereo unspecified) | inactive: 8.41% | 
CCS(=O)(=O)N1CCC(c2ncc(C)n2C(C)C)C1 (stereo unspecified) | inactive: 19.8% | 
Fc1ccc(/C=N/Nc2ccc(Cl)c(Cl)c2)cc1F |  | active: 5.01 µM
CNC(=O)c1ccc(NC(=O)c2ccc3c(c2)NC(=O)CS3)cc1 |  | inconclusive: 31.6 µM [inhibitor, partial curve, poor fit]
O=[N+]([O-])c1ccc(NNC(=S)Nc2ccc(F)cc2)cc1 |  | inconclusive: 22.4 µM [inhibitor, partial curve, poor fit]
Fc1ccccc1CSc1nnc(-c2cccnc2)o1 | inactive: 5.47% | 
O=C(O)CN1C(=O)c2cccc3c(Br)ccc1c23 |  | inconclusive: 39.8 µM [inhibitor, partial curve, poor fit]
CC(Sc1nc(-c2cccs2)nc2ccccc12)C(=O)NC(C)(C)C (stereo unspecified) | inactive: 5.03% | 
Cc1cccc(NC(=S)N2CCOCC2)c1C | inactive: 4.61% | 
Cc1c(C(N)=O)[n+](=O)c2ccccc2n1[O-] |  | inconclusive: 31.6 µM [inhibitor, single point]
Cc1ccc(C)c(NC(=S)NCCc2c[nH]c3ccccc23)c1 |  | inconclusive: 70.8 µM [inhibitor, single point]
CC1C(=O)CCN(C(C)C)C1C (stereo unspecified) |  | inconclusive: 44.7 µM [inhibitor, partial curve, poor fit] and inconclusive: 56.2 µM [inhibitor, partial curve, poor fit]
O=C(Nc1ccc(F)c(F)c1)c1cnc(-c2ccccc2)nc1-c1ccccc1 | inactive: 0% | 
Cc1ccc(S(=O)(=O)NCCCCC(NC(=O)OC(C)(C)C)C(=O)O)cc1 (stereo unspecified) (tested in a mixture with another compound) | inactive: 17.6% | 
O=c1cc(-c2ccsc2)oc2ccccc12 |  | inconclusive: 112 µM [inhibitor, single point]
FC(F)(F)c1cnc(N2CCCN(C(=S)Nc3ccccc3)CC2)c(Cl)c1 |  | inconclusive: 141 µM [inhibitor, single point]
COc1ccc2[nH]c3c(c2c1)CCNC31CCN(Cc2ccc(F)cc2F)CC1 |  | inconclusive: 6.31 µM [inhibitor, full curve, poor fit]
CCC(NC(=O)c1csc(C)c1-c1ccccc1)c1ccc(C(C)C)cc1 (stereo unspecified) | inactive: -61.3% | 
CCCCCCCC1C(C#N)=C(N)SC(N)=C1C#N |  | inconclusive: 56.2 µM [inhibitor, partial curve, poor fit]
CC(C)(C(=O)NCCc1cccs1)c1ccccc1 | inactive: 16.6% | 

Compound | activity change, negative = inhibition | Potency
CC1CCCCC12NC(=O)N(CC(=O)c1ccc[nH]1)C2=O (stereo unspecified) | inactive: 0% | 
CCCCc1ccc(NS(=O)(=O)c2cc3c4c(c2)CC(=O)N4CCC3)cc1 |  | inconclusive: 31.6 µM [inhibitor, partial curve, poor fit]
COc1cc(Nc2ncc(F)c(Nc3ccc4c(n3)N(COP(=O)(O)O)C(=O)C(C)(C)O4)n2)cc(OC)c1OC |  | inconclusive: 1.22 µM [inhibitor, full curve, poor fit]
O=C(Nc1ccc(F)c(Cl)c1)c1cc(C2CCCN(S(=O)(=O)c3ccccc3)C2)on1 (stereo unspecified) |  | inconclusive: 112 µM [inhibitor, single point]
COC(=O)c1sc2cc(C(F)(F)F)cnc2c1-c1ccccn1 |  | inconclusive: 100 µM [inhibitor, single point]
Cc1ccc(-c2cc(O)cc3sc(=O)oc23)cc1C |  | inconclusive: 50.1 µM [inhibitor, partial curve, poor fit]
COc1ccccc1C(O)c1nccn1C (stereo unspecified) |  | inconclusive: 126 µM [inhibitor, single point]
COc1cccc(C(=O)/C(C#N)=N/Nc2cccc(-c3ccnc(C)n3)c2)c1 | inactive: 0% | 
CCOc1ccc2[nH]c(=O)c(C(c3nnnn3Cc3ccco3)N3CCC(C)CC3)cc2c1 (stereo unspecified) | inactive: 0% | 
O=C(NCCCN1CCCCCC1)c1ccc2c(Cl)c3c(nc2c1)CCCC3 |  | inconclusive: 39.8 µM [inhibitor, partial curve]
Nc1nnc(CC(c2ccccc2)c2ccccc2)s1 | inactive: 45.7% | 
N#Cc1ccc(/C=C/C(=O)c2cccnc2)cc1 | inactive: -16% | 
C=CCNC(=O)c1cccc(OC2CCN(CC(C)(C)C)CC2)c1 |  | inconclusive: 39.8 µM [inhibitor, single point]
CC[C@@H](C)C(NC(=O)OC(C)(C)C)c1cn([C@@H](CCCCNC(=O)OC(C)(C)C)C(=O)N2CCN(C(=O)OC(C)(C)C)CC2)nn1 (stereo partly specified) | inactive: -7.07% | 
C[S+](=O)([O-])N1Cc2ccccc2CC2(CCCN2CC2CCNCC2)C1 (stereo unspecified) |  | inconclusive: 39.8 µM [inhibitor, partial curve]
CCOc1ccc(CN2CCN(Cc3cc4c(cc3Cl)OCO4)CC2CCO)cc1 (stereo unspecified) | inactive: -10.2% | 
CCCN(C(=O)Cn1nc(C)c([N+](=O)[O-])c1C)c1c(N)n(Cc2ccccc2)c(=O)[nH]c1=O |  | inconclusive: 89.1 µM [inhibitor, partial curve, poor fit]
COc1ccc([C@@H]2[C@H]3CN(C(C)=O)CC=C3C(C#N)=C(N)C2(C#N)C#N)c2ccccc12 |  | inconclusive: 39.8 µM [inhibitor, partial curve, poor fit]
O=C(NC(=S)Nn1cnc2c(cnn2-c2ccccc2)c1=O)c1ccccc1 |  | inconclusive: 28.2 µM [inhibitor, partial curve]
COc1cccc(CC(=O)OC(C)C(=O)Nc2ncc(Cl)cc2Cl)c1 (stereo unspecified) |  | inconclusive: 100 µM [inhibitor, single point]
O=C1NC(c2ccccc2Br)=N/C1=C\c1ccco1 |  | inconclusive: 89.1 µM [inhibitor, partial curve, poor fit]
COc1ccc(O)c(C(=O)C2c3ccccc3C(=O)N2c2ccc(C)cc2)c1 (stereo unspecified) |  | inconclusive: 22.4 µM [inhibitor, partial curve, poor fit]

Compound | activity change, negative = inhibition | Potency
Cc1cccc(CN2CCC(N3CC(C)OC(C)C3)CC2)c1 (stereo unspecified) |  | inconclusive: 4.47 µM [inhibitor, full curve, poor fit]
CCCNC(=O)C(C)NC(=O)Cc1c(C)nc2nc(N)nn2c1C (stereo unspecified) |  | inconclusive: 0.316 µM [inhibitor, full curve, poor fit]
COc1ccc(NC(=O)c2c(F)cccc2F)cc1S(=O)(=O)Nc1ccc(Br)cc1 |  | inconclusive: 44.7 µM [inhibitor, partial curve, poor fit]
CC(=O)c1ccc(NC(=O)CSc2nc(=O)n(Cc3ccccn3)c3c2CCC3)cc1 |  | inconclusive: 141 µM [inhibitor, partial curve, poor fit]
CN(Cc1cccc(CCN)c1)Cc1cccc2ncccc12 |  | inconclusive: 10 µM [inhibitor, full curve, poor fit]
O=C(CCS(=O)(=O)c1ccc2c(c1)CCN2C(=O)C1CC1)NC1CCCCCCC1 | inactive: -4.58% | 
O=C1C=C(c2ccccc2Oc2ccccc2)C[C@@H](c2ccc(F)cc2)C1 |  | inconclusive: 141 µM [inhibitor, single point]
O=C(NNC(=O)c1ccc(Cl)c(S(=O)(=O)Nc2ccc(Cl)cc2)c1)c1ccc(=O)[nH]c1 |  | inconclusive: 50.1 µM [inhibitor, partial curve, poor fit]
O=c1c(Oc2ccccc2)coc2cc(OCc3ccccc3)ccc12 |  | inconclusive: 50.1 µM [inhibitor, partial curve, poor fit]
CC1CCc2c(c(-c3ccccc3)nc3ccc4ccccc4c23)C1 (stereo unspecified) | inactive: -0.706% | 
Cc1nc2c(c(=O)[nH]1)CCN(CC1(O)CNCCOC1)CC2 (stereo unspecified) |  | inconclusive: 8.91 µM [inhibitor, full curve, poor fit]
COc1ccc(-c2c(C)nn3c2ncc2c(=O)n(-c4ccc(NC(C)=O)cc4)ccc23)cc1 |  | inconclusive: 39.8 µM [inhibitor, partial curve, poor fit]
CCn1cnc2c1c(=O)n(CC(=O)OC)c(=O)n2Cc1ccccc1 |  | inconclusive: 31.6 µM [inhibitor, single point]
CN(c1ccccc1)S(=O)(=O)c1cc(C(=O)Nc2nnc(C3CC3)s2)ccc1Cl | inactive: 17.4% | 
CC(Cc1ccccc1)NC(=O)c1cc([N+](=O)[O-])ccc1Cl (stereo unspecified) |  | inconclusive: 35.5 µM [inhibitor, single point]
O=C(COc1ccc2ccc(=O)oc2c1)Nc1ccc(N2CCOCC2)cc1 |  | inconclusive: 14.1 µM [inhibitor, partial curve, poor fit] and inconclusive: 89.1 µM [inhibitor, partial curve, poor fit]
COC(=O)CSc1ncnc2c1sc1nc3c(cc12)COC(C)(C)C3 | inactive: 376% | 
CN1CC(=O)N(C2CNC2)Cc2c(NCC3CC3)ncnc21 |  | inconclusive: 0.367 µM [inhibitor, partial curve, poor fit]
CCOc1ccc(/C=C2\SC(=S)N(CCC(=O)Nc3cccc(C(=O)O)c3)C2=O)cc1 |  | inconclusive: 50.1 µM [inhibitor, partial curve, poor fit]
Cc1cc(C)c(S(=O)(=O)Cc2ccccc2)c(OC(C)C)n1 |  | inconclusive: 112 µM [inhibitor, single point]
O=C(Cn1c(=O)n(Cc2ccco2)c(=O)c2oc3ccccc3c21)Nc1ccccc1 | inactive: -5.45% | 
O=C(Nc1cccc(-c2nc3ccccc3o2)c1)c1cc([N+](=O)[O-])ccc1Cl |  | inconclusive: 100 µM [inhibitor, single point]
